The list is a part of this screen's results and no random one: it gathers tests that were run many times, whatever their T/C, doses with no T/C, and many T/C values between a quarter and a half above the control. Further doses and runs are listed elsewhere. T/C is the treated group as % of the vehicle group. Some doses have a count of surviving animals in place of a T/C: the source holds a T/C of zero for them, seemingly a mark for toxic or unscored doses. Some survivor counts are full or nearly so, which does not show that the dose was tolerated: survival well below the control is almost never listed, so the zero probably covers shortened survival too. Counts of survivors are from the toxicity check (mostly the fifth day) where no day follows; animals may have died later. Schedules are NCI's codes, taken here to give the interval after Q, in days (D) or hours (H), and the number of doses after X. Some schedules carry Z or #; the key to these is not given. Where survival is the endpoint, this PubChem deposit counts one and a half times the control or more as active, and values a quarter to a half above the control carry no call in these data; other NCI protocols may use other cut-offs. Some T/C values carry the count of animals alive at the toxicity check (mostly the fifth day); without a count, all were alive then.
System: L1210 leukemia ip in BDF1 mice, survival T/C
Assay: NCI In Vivo Anticancer Drug Screen. Data for tumor model L1210 Leukemia (intraperitoneal) in B6D2F1 (BDF1) mice
Details: T/C endpoint: mean survival time, higher T/C = longer survival
[1] = dose: 200.0 mg/kg/injection, schedule: Q01DX009 (ip), vehicle: saline
[2] = dose: 400.0 mg/kg/injection, schedule: Q04DX003 (ip), vehicle: saline with Tween-80
[3] = dose: 400.0 mg/kg/injection, schedule: Q04DX002 (ip), vehicle: saline
[4] = dose: 100.0 mg/kg/injection, schedule: Q01DX009 (ip), vehicle: Klucel (hydroxypropylcellulose) (HPC)
[5] = dose: 200.0 mg/kg/injection, schedule: Q01DX009 (ip), vehicle: Klucel (hydroxypropylcellulose) (HPC)
[6] = dose: 400.0 mg/kg/injection, schedule: Q01DX009 (ip), vehicle: Klucel (hydroxypropylcellulose) (HPC)
[7] = dose: 200.0 mg/kg/injection, schedule: Q01DX009 (ip), vehicle: saline with Tween-80
[8] = dose: 200.0 mg/kg/injection, schedule: Q01DX001 (ip), vehicle: saline
[9] = dose: 240.0 mg/kg/injection, schedule: Q01DX Z (ip), vehicle: other
[10] = dose: 360.0 mg/kg/injection, schedule: Q01DX Z (ip), vehicle: other

CN(C)C1CCc2ccc3ccccc3c2C1=O (stereo unspecified)
survivor count (dose: 100.0 mg/kg/injection, schedule: Q01DX009 (ip), vehicle: saline): 0 of 3 | survivor count [1]: 0 of 3

CCOC(=O)C(=O)NCc1cnccn1
survivor count (dose: 100.0 mg/kg/injection, schedule: Q01DX009 (ip), vehicle: water): 3 of 6

CCOP(=S)(OCC)SC(C)C
survivor count [2]: 0 of 6

C[CH2][Ge]1([CH2]C)[CH2]CC2(C[CH2]1)CN(CCCN(C)C)CN2
survivor count (dose: 200.0 mg/kg/injection, schedule: Q04DX002 (ip), vehicle: saline): 0 of 3 | survivor count [3]: 0 of 3

CCN(CCCl)CCCNc1c2ccc(Cl)cc2nc2ccc(OC)nc12
survivor count (dose: 3.0 mg/kg/injection, schedule: Q01DX009 (ip), vehicle: saline): 4 of 6 | survivor count (dose: 10.0 mg/kg/injection, schedule: Q01DX009 (ip), vehicle: saline): 3 of 6 | survivor count (dose: 20.0 mg/kg/injection, schedule: Q01DX009 (ip), vehicle: saline): 0 of 6 | survivor count (dose: 30.0 mg/kg/injection, schedule: Q01DX009 (ip), vehicle: saline): 0 of 6 | survivor count (dose: 40.0 mg/kg/injection, schedule: Q01DX009 (ip), vehicle: saline): 0 of 6

O=C(Nc1ncc(S(=O)(=O)c2ccc([N+](=O)[O-])cc2)s1)C(F)(F)F
survivor count (dose: 400.0 mg/kg/injection, schedule: Q01DX009 (ip), vehicle: saline with Tween-80): 3 of 6

COc1ccc2c(c1)sc(=N)n2C
survivor count [3]: 1 of 3

COc1ccc2c(c1)C(C)(C)N(C)CC2
survivor count (dose: 200.0 mg/kg/injection, schedule: Q04DX003 (ip), vehicle: acetone): 0 of 6 | survivor count (dose: 400.0 mg/kg/injection, schedule: Q04DX003 (ip), vehicle: acetone): 0 of 6

CN1CCCCC1CCN1c2ccccc2Sc2ccc(Br)cc21 (stereo unspecified)
survivor count (dose: 25.0 mg/kg/injection, schedule: Q01DX009 (ip), vehicle: saline): 0 of 6 | survivor count (dose: 50.0 mg/kg/injection, schedule: Q01DX009 (ip), vehicle: saline): 0 of 6

COc1cc(Cl)ccc1NC(=O)Oc1ccccc1C(N)=O
survivor count (dose: 25.0 mg/kg/injection, schedule: Q01DX009 (ip), vehicle: Klucel (hydroxypropylcellulose) (HPC)): 6 of 6 | survivor count [4]: 5 of 6 | survivor count [5]: 5 of 6 | survivor count [6]: 0 of 6

O=C(Nc1ccc(Cl)cc1C(F)(F)F)Sc1ccc(Cl)cc1
survivor count (dose: 400.0 mg/kg/injection, schedule: Q01DX009 (ip), vehicle: gum acacia): 3 of 6

O=C(Nc1cccc2ccccc12)O/N=C/c1ccccn1
survivor count [7]: 6 of 6

CC1(C)N=C(N)N=C(N)N1c1ccc(Cl)c(Cl)c1
T/C (dose: 5.0 mg/kg/injection, schedule: Q01DX009 (ip), vehicle: saline): 140 % of control | T/C (dose: 18.0 mg/kg/injection, schedule: Q01DX009 (ip), vehicle: saline): 126 % of control | survivor count (dose: 75.0 mg/kg/injection, schedule: Q01DX001 (ip), vehicle: saline): 2 of 6 | survivor count (dose: 150.0 mg/kg/injection, schedule: Q01DX001 (ip), vehicle: saline): 0 of 6 | survivor count (dose: 300.0 mg/kg/injection, schedule: Q01DX001 (ip), vehicle: saline): 0 of 6

NC(N)=N/N=C/NN/C=N/N=C(N)N
T/C (dose: 120.0 mg/kg/injection, schedule: Q01DX Z (ip), vehicle: saline): 130 % of control | survivor count (dose: 240.0 mg/kg/injection, schedule: Q01DX Z (oral), vehicle: saline): 1 of 6 | survivor count (dose: 480.0 mg/kg/injection, schedule: Q01DX Z (oral), vehicle: saline): 0 of 6 | survivor count (dose: 960.0 mg/kg/injection, schedule: Q01DX Z (oral), vehicle: saline): 0 of 6

O=C(O)CCC(=O)c1ccc2sc3ccccc3c2c1
survivor count [5]: 0 of 6 | survivor count [6]: 0 of 6

O=CO.[Co]
survivor count (dose: 100.0 mg/kg/injection, schedule: Q01DX001 (ip), vehicle: saline): 0 of 6 | survivor count [8]: 0 of 6 | survivor count (dose: 400.0 mg/kg/injection, schedule: Q01DX001 (ip), vehicle: saline): 0 of 6

CCN(CC)CC[n+]1ccccc1
survivor count [3]: 0 of 3

CN(N=O)C(=O)NC1CCOCC1
T/C (dose: 375.0 mg/kg/injection, schedule: Q01DX001 (ip), vehicle: saline): 126 % of control | survivor count (dose: 1000.0 mg/kg/injection, schedule: Q01DX001 (ip), vehicle: saline): 4 of 10

CCCNC(=S)Nc1ccccc1
survivor count (dose: 300.0 mg/kg/injection, schedule: Q01DX001 (ip), vehicle: other): 3 of 6

O=Cc1ccc(O)c(O)c1
survivor count (dose: 160.0 mg/kg/injection, schedule: Q01DX Z (ip), vehicle: other): 1 of 6 | T/C [9]: 127 % of control | survivor count [9]: 0 of 6 | T/C (dose: 340.0 mg/kg/injection, schedule: Q01DX Z (ip), vehicle: other): 129 % of control | T/C (dose: 360.0 mg/kg/injection, schedule: Q01DX Z (ip), vehicle: carboxymethylcellulose (CMC)): 136 % of control | T/C [10]: 141 % of control [5 of 6 alive] | survivor count [10]: 0 of 6 | survivor count (dose: 540.0 mg/kg/injection, schedule: Q01DX Z (ip), vehicle: carboxymethylcellulose (CMC)): 3 of 6 | survivor count (dose: 540.0 mg/kg/injection, schedule: Q01DX Z (ip), vehicle: other): 0 of 6 | survivor count (dose: 1000.0 mg/kg/injection, schedule: Q01DX Z (ip), vehicle: other): 3 of 6

OCCCCc1ccccc1
survivor count (dose: 400.0 mg/kg/injection, schedule: Q01DX009 (ip), vehicle: saline sonified): 4 of 6

NC(N)=N/N=C(/c1cccs1)C1CC1
survivor count (dose: 60.0 mg/kg/injection, schedule: Q01DX Z (oral), vehicle: methylcellulose (MC)): 3 of 6 | survivor count (dose: 250.0 mg/kg/injection, schedule: Q01DX Z (ip), vehicle: methylcellulose (MC)): 6 of 6 | survivor count (dose: 500.0 mg/kg/injection, schedule: Q01DX Z (ip), vehicle: methylcellulose (MC)): 0 of 6 | survivor count (dose: 750.0 mg/kg/injection, schedule: Q01DX Z (ip), vehicle: methylcellulose (MC)): 0 of 6

Cc1cc(-c2ccccc2)c2c(C#N)cn(-c3cccc(Cl)c3)c2n1
survivor count [8]: 3 of 3

C(=NCCN1CCOCC1)=NC1CCCCC1
survivor count (dose: 100.0 mg/kg/injection, schedule: Q04DX003 (ip), vehicle: saline with Tween-80): 1 of 6 | survivor count (dose: 200.0 mg/kg/injection, schedule: Q04DX003 (ip), vehicle: saline with Tween-80): 0 of 6 | survivor count [2]: 0 of 6

c1ccc2c(CN3CCCCC3)c[nH]c2c1
survivor count [7]: 0 of 6 | survivor count [2]: 4 of 6

Cc1cnc(-n2nc(-c3ccccc3)cc2-c2ccccc2)nc1-c1ccccc1O
survivor count [4]: 2 of 3 | survivor count [5]: 3 of 3

CN(C)CC(C)(C)CN1c2ccccc2Sc2ccccc21
survivor count (dose: 100.0 mg/kg/injection, schedule: Q04DX003 (ip), vehicle: saline): 3 of 4 | survivor count [1]: 0 of 6 | survivor count (dose: 200.0 mg/kg/injection, schedule: Q04DX003 (ip), vehicle: saline): 2 of 4 | survivor count (dose: 400.0 mg/kg/injection, schedule: Q01DX009 (ip), vehicle: saline): 0 of 6 | survivor count (dose: 400.0 mg/kg/injection, schedule: Q04DX003 (ip), vehicle: saline): 0 of 4

Cn1ncc2c(N)nc(-c3ccccc3)nc21
survivor count (dose: 200.0 mg/kg/injection, schedule: Q04DX003 (ip), vehicle: other): 2 of 6 | survivor count (dose: 400.0 mg/kg/injection, schedule: Q04DX003 (ip), vehicle: other): 0 of 6

From PubChem BioAssay AID248 (DTP/NCI, 2004)
